Measured values published in PMC12513489.
These are yes or no findings as the source states them, for the method shown. In cells and extracts the contact can be indirect. Some binding calls cover weakened binding; strength is not graded here.

By UniProt entry, the sequences of proteins in these tests, tags left out. Residues count along the entry.
UniProt P08113, residues 22-802: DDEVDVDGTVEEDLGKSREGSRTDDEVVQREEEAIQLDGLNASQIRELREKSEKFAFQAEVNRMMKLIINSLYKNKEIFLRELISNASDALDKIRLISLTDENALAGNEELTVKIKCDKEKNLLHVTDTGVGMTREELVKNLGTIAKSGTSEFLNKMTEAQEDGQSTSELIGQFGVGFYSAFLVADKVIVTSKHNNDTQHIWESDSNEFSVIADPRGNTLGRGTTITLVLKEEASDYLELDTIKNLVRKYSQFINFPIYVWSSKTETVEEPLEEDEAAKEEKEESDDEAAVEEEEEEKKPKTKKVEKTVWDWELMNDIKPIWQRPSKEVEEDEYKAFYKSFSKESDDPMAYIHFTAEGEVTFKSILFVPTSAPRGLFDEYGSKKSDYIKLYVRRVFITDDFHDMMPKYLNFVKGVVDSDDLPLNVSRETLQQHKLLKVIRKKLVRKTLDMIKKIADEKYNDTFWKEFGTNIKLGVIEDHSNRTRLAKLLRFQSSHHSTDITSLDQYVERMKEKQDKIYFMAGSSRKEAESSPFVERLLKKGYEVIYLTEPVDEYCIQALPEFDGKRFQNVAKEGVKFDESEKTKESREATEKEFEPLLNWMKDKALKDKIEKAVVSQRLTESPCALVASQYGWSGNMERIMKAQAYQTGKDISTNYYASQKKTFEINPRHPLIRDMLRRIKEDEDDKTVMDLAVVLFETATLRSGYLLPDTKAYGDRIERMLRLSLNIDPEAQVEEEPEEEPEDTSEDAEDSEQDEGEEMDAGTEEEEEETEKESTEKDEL
UniProt P07356: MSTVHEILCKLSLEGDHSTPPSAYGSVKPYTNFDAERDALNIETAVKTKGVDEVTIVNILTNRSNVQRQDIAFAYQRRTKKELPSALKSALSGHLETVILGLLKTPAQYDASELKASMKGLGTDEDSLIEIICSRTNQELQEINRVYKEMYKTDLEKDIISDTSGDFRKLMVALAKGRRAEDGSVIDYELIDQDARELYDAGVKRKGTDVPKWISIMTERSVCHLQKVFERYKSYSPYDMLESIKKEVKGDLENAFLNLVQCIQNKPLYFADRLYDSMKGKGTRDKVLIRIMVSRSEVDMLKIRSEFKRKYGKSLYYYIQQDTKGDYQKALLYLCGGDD

Experiments:
[1] = biological target: glucose-regulated protein 94 (GRP94) (mouse (endogenous in cardiomyocytes)) (UniProt P08113); test: co-IP; mutual co-IP of endogenous proteins with anti-GRP94, anti-Anxa2 or rabbit IgG control antibody on Protein A/G magnetic beads from cardiomyocyte lysate, under hypoxia (12 hours) or tunicamycin treatment; immunoblot
[2] = biological target: Anxa2 (mouse (endogenous in cardiomyocytes)) (UniProt P07356); test: as above

| binding [1] | binding [2] | Substance |
| --- | --- | --- |
| binds | – | Anxa2 (from UniProt P07356 1-339) |
| – | binds | glucose-regulated protein 94 (GRP94) (from UniProt P08113 22-802) |
